Laboratory results taken from the odorant receptor screen of Mainland et al. (2015).
“And” between values parts separate entries of the source, which are not always exact repeats. Equal entries are not always repeated. The list shows a part of the results. Single wells; the ratio to wells without odorant was worked out here, and repeats agree poorly.

Columns and labels:
Experiment in all cases: odorant receptor activation (CRE luciferase / Renilla) (fold of no-odor wells); higher = more activation
Conditions in all cases: 100 µM
[1] = system: OR2L8 clone 1515
[2] = system: OR2M2 R220G/C235R clone 1494
[3] = system: OR2M3 clone 1054
[4] = system: OR2M4 clone 1053
[5] = system: OR2M5 clone 1167
[6] = system: OR2M7 F35L/V78A/C178F clone 1378
[7] = system: OR2M7 F35L/V78A/C178F/D191N clone 1401
[8] = system: OR2M7 clone 1377
[9] = system: OR2S2 clone 1462
[10] = system: OR2T1 P132L clone 1474

SMILES	odorant receptor activation [1]	odorant receptor activation [2]	odorant receptor activation [3]	odorant receptor activation [4]	odorant receptor activation [5]	odorant receptor activation [6]	odorant receptor activation [7]	odorant receptor activation [8]	odorant receptor activation [9]	odorant receptor activation [10]
CS [methanethiol]	0.877	0.95	1.23	1.45	0.819	0.928	0.914	0.998	0.818	0.939
CCC(C)=O [2-butanone]	1.44	0.971	2.09	3.62	1.12	1.32	0.931	1.12	1.07	0.94
CCCCOC(C)=O [butyl acetate]	1.6	0.774	1.03	1.3	1.03	0.213	0.247	0.192	0.751	0.855
CCOc1cc(C=O)ccc1O [ethyl vanillin]	1.03 and 2.13 and 1.19	1.3 and 1.96 and 1.08	1.26 and 1.1	1.69 and 1.03	1.39 and 1.05	0.959 and 1.41	1.28 and 1.03	0.869 and 0.981	0.853 and 2.51 and 1.25	1.25 and 1.5 and 1.06
